Measured values as given in paper doi:10.1101/2025.02.25.640159.
These are yes or no findings as the source states them, for the method shown. Binding seen in cells or lysates may run through a third protein. Some results given as binding are weak or reduced against the parent protein; the word gives no strength.

The chains behind the UniProt entries cited, without tags or fusion partners.
UniProt O24456: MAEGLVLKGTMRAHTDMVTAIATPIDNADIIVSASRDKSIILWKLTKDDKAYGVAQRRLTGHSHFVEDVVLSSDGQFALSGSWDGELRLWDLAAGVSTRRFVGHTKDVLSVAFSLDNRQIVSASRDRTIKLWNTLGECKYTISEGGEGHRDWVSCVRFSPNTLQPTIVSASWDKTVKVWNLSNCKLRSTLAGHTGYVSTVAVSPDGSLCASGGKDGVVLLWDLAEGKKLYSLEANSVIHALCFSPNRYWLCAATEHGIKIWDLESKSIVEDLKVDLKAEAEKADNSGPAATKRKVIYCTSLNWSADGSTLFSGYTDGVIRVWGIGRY

Biological target: YFPn-RACK1A (Arabidopsis thaliana) (UniProt O24456)
Experiment: split reporter

binding | Binder
binds | NUDT7-YFPc (NUDIX HYDROLASE 7) (enzyme, UniProt Q9SU14 1-282) MGTRAQQIPLLEGETDNYDGVTVTMVEPMDSEVFTESLRASLSHWREEGKKGIWIKLPLGLANLVEAAVSEGFRYHHAEPEYLMLVSWISETPDTIPANASHVVGAGALVINKNTKEVLVVQERSGFFKDKNVWKLPTGVINEGEDIWTGVAREVEEETGIIADFVEVLAFRQSHKAILKKKTDMFFLCVLSPRSYDITEQKSEILQAKWMPIQEYVDQPWNKKNEMFKFMANICQKKCEEEYLGFAIVPTTTSSGKESFIYCNADHAKRLKVSRDQASASL
no binding | YFPc-GPA1 (GUANINE NUCLEOTIDE-BINDING PROTEIN ALPHA-1 SUBUNIT) (protein, UniProt P18064 1-383) MGLLCSRSRHHTEDTDENTQAAEIERRIEQEAKAEKHIRKLLLLGAGESGKSTIFKQIKLLFQTGFDEGELKSYVPVIHANVYQTIKLLHDGTKEFAQNETDSAKYMLSSESIAIGEKLSEIGGRLDYPRLTKDIAEGIETLWKDPAIQETCARGNELQVPDCTKYLMENLKRLSDINYIPTKEDVLYARVRTTGVVEIQFSPVGENKKSGEVYRLFDVGGQRNERRKWIHLFEGVTAVIFCAAISEYDQTLFEDEQKNRMMETKELFDWVLKQPCFEKTSFMLFLNKFDIFEKKVLDVPLNVCEWFRDYQPVSSGKQEIEHAYEFVKKKFEELYYQNTAPDRVDRVFKIYRTTALDQKLVKKTFKLVDETLRRRNLLEAGLL
